# Results reported in patent US20040018561A1 (priority 2002, published 2004).
# Assay: general procedure: Fmoc solid-phase peptide synthesis; Applied Biosystems Fmoc-Amide-Resin (Product number 401435); manufacturer's reagents; manual N-terminal capping with HATU/HOAT, BOP/HOBT or P
# Details: for isolated mass / final HPLC purity / isolated yield: whole synthesis; for final HPLC purity: analytical reversed phase HPLC
Substance,isolated mass,final HPLC purity,"isolated yield (overall, scale 0.25 mmol)","isolated yield (overall, scale 0.1 mmol)",isolated yield (overall),"isolated yield (overall, scale 1.0 mmol)","step yield (late stage modification step, overall)"
"N-2-[(7-methoxy-2-oxo-2H-chromen-4-yl)acetyl]-D-arginyl-L-prolyl-L-leucylglycyl-L-leucyl-3-[(2,4-dinitrophenyl)amino]-L-alanyl-L-alanyl-D-arginyl-D-alpha-glutamyl-D-argininamide",0.213 g,98%,56%,–,–,–,–
"1-[(7-methoxy-2-oxo-2H-chromen-4-yl)acetyl]-L-prolyl-L-leucylglycyl-S-(3-phenylpropyl)-L-cysteinyl-3-[(2,4-dinitrophenyl)amino]-L-alanyl-L-alanyl-L-argininamide",0.019 g,97%,–,14%,–,–,–
"N-2-[(7-methoxy-2-oxo-2H-chromen-4-yl)acetyl]-D-arginyl-L-prolyl-L-leucylglycyl-L-leucyl-3-[(2,4-dinitrophenyl)amino]-L-alanyl-L-alanyl-L-arginyl-D-alpha-glutamyl-D-argininamide",0.270 g,98%,70%,–,–,–,–
"N-2-[(7-methoxy-2-oxo-2H-chromen-4-yl)acetyl]-D-arginyl-L-prolyl-L-leucyl-S-methyl-L-cysteinyl-L-leucyl-3-[(2,4-dinitrophenyl)amino]-L-alanyl-L-alanyl-D-arginyl-D-alpha-glutamyl-D-argininamide",0.158 g,93%,–,–,40%,–,–
"N-2-[(7-methoxy-2-oxo-2H-chromen-4-yl)acetyl]-D-arginyl-L-prolyl-L-leucylglycyl-6-phenoxy-L-norleucyl-3-[(2,4-dinitrophenyl)amino]-L-alanyl-L-alanyl-D-arginyl-D-alpha-glutamyl-D-argininamide",0.0.662 g,96%,–,–,–,41%,–
"N-[5-(2-oxohexahydro-1H-thieno[3,4-d]imidazol-4-yl)pentanoyl]-L-alpha-glutamyl-L-prolyl-L-leucylglycyl-L-leucyl-L-lysyl-L-alanyl-L-alpha-glutamyl-L-arginyl-L-alpha-glutamine",0.22 g,95%,–,–,65%,–,–
"N-[5-(2-oxohexahydro-1H-thieno[3,4-d]imidazol-4-yl)pentanoyl]-L-alpha-glutamyl-L-prolyl-L-leucylglycyl-L-leucyl-N˜6˜-{4-{[3-carboxy-4-(6-hydroxy-3-oxo-3H-xanthen-9-yl)phenyl]amino}-6-[(2-hydroxyethyl)thiol]-1,3,5-triazin-2-yl}-L-lysyl-L-al",–,–,–,–,–,–,74%
"N-2-[(7-methoxy-2-oxo-2H-chromen-4-yl)acetyl]-L-arginyl-L-prolyl-L-leucylglycyl-6-(benzyloxy)-L-norleucyl-3-[(2,4-dinitrophenyl)amino]-L-alanyl-L-alanyl-L-arginyl-L-alpha-glutamyl-L-argininamide",0.160 g,98%,–,–,39%,–,–
"N-2-[(7-methoxy-2-oxo-2H-chromen-4-yl)acetyl]-D-arginyl-L-prolyl-L-leucylglycyl-L-leucyl-3-[(2,4-dinitrophenyl)amino]-L-alanyl-beta-alanyl-D-arginyl-beta-alanyl-D-argininamide",0.139 g,98%,30%,–,–,–,–
"N-2-[(7-methoxy-2-oxo-2H-chromen-4-yl)acetyl]-D-arginyl-L-prolyl-L-glutaminyl-L-alpha-glutamyl-6-(benzyloxy)-L-norleucyl-3-[(2,4-dinitrophenyl)amino]-L-alanyl-L-alanyl-D-arginyl-D-alpha-glutamyl-D-argininamide",0.121 g,98%,–,–,28%,–,–
"N-2-[(7-methoxy-2-oxo-2H-chromen-4-yl)acetyl]-D-lysyl-L-prolyl-L-leucylglycyl-L-leucyl-3-[(2,4-dinitrophenyl)amino]-L-alanyl-L-alanyl-D-arginyl-D-alpha-glutamyl-D-argininamide",0.214 g,98%,53%,–,–,–,–
"N-2-[(7-methoxy-2-oxo-2H-chromen-4-yl)acetyl]-D-arginyl-L-prolyl-L-leucyl-L-alpha-glutamyl-6-(benzyloxy)-L-norleucyl-3-[(2,4-dinitrophenyl)amino]-L-alanyl-L-alanyl-D-arginyl-D-alpha-glutamyl-D-argininamide",0.096 g,98%,–,–,22%,–,–
"1-[(7-methoxy-2-oxo-2H-chromen-4-yl)acetyl]-L-prolyl-L-leucylglycyl-O-benzyl-L-tyrosyl-3-[(2,4-dinitrophenyl)amino]-L-alanyl-L-alanyl-L-argininamide",0.013 g,98%,5%,–,–,–,–
"N-2-{5-[(3aS,4S,6aR)-2-oxohexahydro-1H-thieno[3,4-d]imidazol-4-yl]pentanoyl}-L-arginyl-L-prolyl-L-leucylglycyl-L-leucyl-L-lysyl-L-alanyl-L-arginyl-L-alpha-glutamyl-L-arginamide",0.25 g,99%,–,–,70%,–,–
"1-[(7-methoxy-2-oxo-2H-chromen-4-yl)acetyl]-L-prolyl-L-leucylglycyl-6-(benzyloxy)-L-norleucyl-3-[(2,4-dinitrophenyl)amino]-L-alanyl-L-alanyl-L-argininamide",0.019 g,98%,–,16%,–,–,–
"N-2-[(7-methoxy-2-oxo-2H-chromen-4-yl)acetyl]-L-arginyl-L-prolyl-L-glutaminyl-L-alpha-glutamyl-6-(benzyloxy)-L-norleucyl-3-[(2,4-dinitrophenyl)amino]-L-alanyl-L-alanyl-L-arginyl-L-alpha-glutamyl-L-argininamide",0.140 g,99.9%,–,–,32%,–,–
"N-2-[(7-methoxy-2-oxo-2H-chromen-4-yl)acetyl]-D-arginyl-L-prolyl-L-leucylglycyl-6-(benzyloxy)-L-norleucyl-3-[(2,4-dinitrophenyl)amino]-L-alanyl-L-alanyl-D-arginyl-D-alpha-glutamyl-D-argininamide",0.150 g,98%,–,–,37%,–,–
"N-2-[(7-methoxy-2-oxo-2H-chromen-4-yl)acetyl]-L-arginyl-L-prolyl-L-leucylglycyl-L-leucyl-3-[(2,4-dinitrophenyl)amino]-L-alanyl-L-alanyl-L-arginyl-L-alpha-glutamyl-D-argininamide",0.270 g,98%,70%,–,–,–,–
"1-[(7-methoxy-2-oxo-2H-chromen-4-yl)acetyl]-L-prolyl-L-leucylglycyl-3-(2-naphthyl)-L-alanyl-3-[(2,4-dinitrophenyl)amino]-L-alanyl-L-alanyl-L-argininamide",0.013 g,98%,5%,–,–,–,–
